Data source: PubChem BioAssay AID1159508 (Drosophila RNAi Screening Center, 2015)
The deposit covers 812 reagents; shown is a random part of them. 18 of all reagents (2.2%) were called active. 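Calls include both increased and decreased ATP; roughly one in four reagents has no third replicate value.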 Entries without a mark were called inactive. Names joined by + are all predicted targets of the reagent. Further read-outs or replicates are left out here. Not given: the amount of reagent.

Aim: 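Viability reference data for a dsRNA library against RNA-binding protein genes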
System: Drosophila S2R+ cells
Reagent: long dsRNA against Drosophila genes
Duration: 5 days
Detection: 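Luminescent ATP signal as a proxy for cell fitness after 5 days of RNAi, given as a z-score in each replicate and averaged over replicates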
Scale: mean ATP z-score and ATP z-score: higher = more total ATP luminescence
Active means: In these data the active calls have mean ATP z-score at about -2 or lower, or at about 2 or higher
Calls: active = strong ATP change (up or down); inactive = no strong ATP change

{"target gene": "bbx + waw", "amplicon": "DRSC20575", "mean ATP z-score": -0.302, "ATP z-score, replicate 1": -0.478}
{"target gene": "bbx + waw", "amplicon": "DRSC24894", "mean ATP z-score": -0.766, "ATP z-score, replicate 1": -0.907}
{"target gene": "Rbm13 (RNA-binding motif protein 13)", "amplicon": "DRSC25416", "mean ATP z-score": 0.461, "ATP z-score, replicate 1": -0.282}
{"target gene": "Rbm13 (RNA-binding motif protein 13)", "amplicon": "DRSC33595", "mean ATP z-score": 0.172, "ATP z-score, replicate 1": -0.327}
{"target gene": "SF2 (Splicing factor 2)", "amplicon": "DRSC16845", "mean ATP z-score": 0.597, "ATP z-score, replicate 1": 0.229}
{"target gene": "SF2 (Splicing factor 2)", "amplicon": "DRSC32605", "mean ATP z-score": 0.173, "ATP z-score, replicate 1": -0.285}
{"target gene": "Nsun2 (NOP2-Sun domain family, member 2)", "amplicon": "DRSC18662", "mean ATP z-score": 0.48, "ATP z-score, replicate 1": 0.0637}
{"target gene": "Nsun2 (NOP2-Sun domain family, member 2)", "amplicon": "DRSC28657", "mean ATP z-score": -0.0382, "ATP z-score, replicate 1": -0.239}
{"target gene": "HnRNP-K (Heterogeneous nuclear ribonucleoprotein K)", "amplicon": "DRSC24070", "mean ATP z-score": -0.482, "ATP z-score, replicate 1": -0.688}
{"target gene": "HnRNP-K (Heterogeneous nuclear ribonucleoprotein K)", "amplicon": "DRSC40752", "mean ATP z-score": 0.62, "ATP z-score, replicate 1": 0.328}
{"target gene": "Ref1 (RNA and export factor binding protein 1)", "amplicon": "DRSC12497", "mean ATP z-score": 0.138, "ATP z-score, replicate 1": 0.0711}
{"target gene": "Ref1 (RNA and export factor binding protein 1)", "amplicon": "DRSC22387", "mean ATP z-score": 0.453, "ATP z-score, replicate 1": 0.14}

Look-ups from the entries so far.
Under “mean ATP z-score”, Rbm13 (RNA-binding motif protein 13) [DRSC33595] shows 0.172
Entry for Ref1 (RNA and export factor binding protein 1) [DRSC12497] under “ATP z-score, replicate 1”: 0.0711
Under “mean ATP z-score”, HnRNP-K (Heterogeneous nuclear ribonucleoprotein K) [DRSC24070] reads -0.482
Entry of bbx + waw [DRSC20575] under “mean ATP z-score”: -0.302

The results go on.
{"target gene": "eRF3 (eukaryotic translation release factor 3)", "amplicon": "DRSC03322", "mean ATP z-score": "2.38 (active)", "ATP z-score, replicate 1": 2.12}
{"target gene": "eRF3 (eukaryotic translation release factor 3)", "amplicon": "DRSC32120", "mean ATP z-score": 0.225, "ATP z-score, replicate 1": -0.012}
{"target gene": "CG14230", "amplicon": "DRSC19586", "mean ATP z-score": 0.239, "ATP z-score, replicate 1": -0.167}
{"target gene": "CG14230", "amplicon": "DRSC33986", "mean ATP z-score": 0.143, "ATP z-score, replicate 1": -0.386}
{"target gene": "Mkp + CG34140", "amplicon": "DRSC08585", "mean ATP z-score": 0.857, "ATP z-score, replicate 1": 0.632}
{"target gene": "Mkp + CG34140", "amplicon": "DRSC26000", "mean ATP z-score": -0.545, "ATP z-score, replicate 1": -0.676}
{"target gene": "swa (swallow)", "amplicon": "DRSC18842", "mean ATP z-score": -0.0126, "ATP z-score, replicate 1": -0.137}
{"target gene": "swa (swallow)", "amplicon": "DRSC25555", "mean ATP z-score": -1.34, "ATP z-score, replicate 1": -1.38}
{"target gene": "beta-PheRS (Phenylalanyl-tRNA synthetase, beta-subunit)", "amplicon": "DRSC26218", "mean ATP z-score": -0.98, "ATP z-score, replicate 1": -0.975}
{"target gene": "beta-PheRS (Phenylalanyl-tRNA synthetase, beta-subunit)", "amplicon": "DRSC41194", "mean ATP z-score": -1.72, "ATP z-score, replicate 1": -1.67}
{"target gene": "CG12129", "amplicon": "DRSC06105", "mean ATP z-score": 0.66, "ATP z-score, replicate 1": 0.366}
{"target gene": "CG12129", "amplicon": "DRSC42672", "mean ATP z-score": 0.385, "ATP z-score, replicate 1": -0.212}
{"target gene": "nito (spenito)", "amplicon": "DRSC05943", "mean ATP z-score": 0.676, "ATP z-score, replicate 1": 0.0363}
{"target gene": "nito (spenito)", "amplicon": "DRSC35891", "mean ATP z-score": -0.637, "ATP z-score, replicate 1": -0.67}
{"target gene": "SC35 (SR family splicing factor SC35)", "amplicon": "DRSC25427", "mean ATP z-score": -0.258, "ATP z-score, replicate 1": -0.262}
{"target gene": "SC35 (SR family splicing factor SC35)", "amplicon": "DRSC39081", "mean ATP z-score": 0.564, "ATP z-score, replicate 1": -0.0828}
{"target gene": "CG14641", "amplicon": "DRSC12227", "mean ATP z-score": 0.398, "ATP z-score, replicate 1": 0.0163}
{"target gene": "CG14641", "amplicon": "DRSC31836", "mean ATP z-score": -0.704, "ATP z-score, replicate 1": -0.981}
{"target gene": "peng (penguin)", "amplicon": "DRSC29638", "mean ATP z-score": 0.962, "ATP z-score, replicate 1": 0.606}
{"target gene": "peng (penguin)", "amplicon": "DRSC41042", "mean ATP z-score": 0.288, "ATP z-score, replicate 1": -0.542}
